Laboratory results: PubChem BioAssay AID1259405 (NCATS, 2018)
The whole screen tested about 50,000 reagents; this is a random part of them. About 4,000 of all reagents (8%) count as active. 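Mouse siRNA library applied to hamster cells; one well for each siRNA.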 The numbers tell different reagents against one gene apart. Reagent sequences are not shown.

Aim: 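Mouse-designed siRNAs used to find CHO productivity engineering targets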 (primary screen)
Cell system: Chinese hamster CHO-K1 ovary cells with stable secreted eGFP expression
Knock-down reagent: single siRNA against mouse genes, 0.8 pmol siRNA per well (2 µl of 400 nM stock)
Timing: 3 days
Read-out: 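Per-well intracellular GFP measured by laser scanning cytometry, plus viability from ATP luminescence, each relative to plate median of non-targeting control wells, in %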
Direction: GFP, % of control: higher = more GFP per well, higher productivity; viability (ATP), % of control: higher = more viable cells (more ATP)
Call rule: 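Called active when intracellular GFP, relative to negative control, is at or above 120%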

target gene | reagent | GFP, % of control | viability (ATP), % of control | outcome
Usp44 (GeneID 327799) | 1 | 78.6 | 79.8 | inactive
Usp44 (GeneID 327799) | 2 | 69.3 | 64.6 | inactive
Usp44 (GeneID 327799) | 3 | 56.8 | 59.1 | inactive
Or5an11 (GeneID 258681) | 1 | 47 | 81.5 | inactive
Or5an11 (GeneID 258681) | 2 | 55 | 65.9 | inactive
Or5an11 (GeneID 258681) | 3 | 34 | 44.7 | inactive
Or52r1c (GeneID 259056) | 1 | 126 | 64.2 | active
Or52r1c (GeneID 259056) | 2 | 101 | 61.4 | inactive
Or52r1c (GeneID 259056) | 3 | 88.5 | 102 | inactive
Klhl22 (GeneID 224023) | 1 | 79.5 | 60.7 | inactive
Klhl22 (GeneID 224023) | 2 | 114 | 85.7 | inactive
Klhl22 (GeneID 224023) | 3 | 94.2 | 89.1 | inactive
Bbs5 (GeneID 72569) | 1 | 90.4 | 70.6 | inactive
Bbs5 (GeneID 72569) | 2 | 54.7 | 70.4 | inactive
Bbs5 (GeneID 72569) | 3 | 35.8 | 50.3 | inactive
Ifna13 (GeneID 230396) | 1 | 49.9 | 74.2 | inactive
Ifna13 (GeneID 230396) | 2 | 82.2 | 56.8 | inactive
Ifna13 (GeneID 230396) | 3 | 56.2 | 60.9 | inactive
H2-M10.1 (GeneID 14985) | 1 | 108 | 78 | inactive
H2-M10.1 (GeneID 14985) | 2 | 63.1 | 70.7 | inactive
H2-M10.1 (GeneID 14985) | 3 | 95.4 | 82.9 | inactive
Syce2 (GeneID 71846) | 1 | 77.2 | 58.5 | inactive
Syce2 (GeneID 71846) | 2 | 61.9 | 60.4 | inactive
Syce2 (GeneID 71846) | 3 | 79 | 83 | inactive
Cdc16 (GeneID 69957) | 1 | 69.1 | 74.1 | inactive
Cdc16 (GeneID 69957) | 2 | 72.1 | 78.3 | inactive
Cdc16 (GeneID 69957) | 3 | 71.5 | 67.6 | inactive
Zc3h10 (GeneID 103284) | 1 | 61 | 68.2 | inactive
Zc3h10 (GeneID 103284) | 2 | 48.4 | 73.3 | inactive
Zc3h10 (GeneID 103284) | 3 | 60.4 | 65.6 | inactive
1700012A03Rik (GeneID 76382) | 1 | 92.5 | 83.7 | inactive
1700012A03Rik (GeneID 76382) | 2 | 83.4 | 72.3 | inactive
1700012A03Rik (GeneID 76382) | 3 | 89.9 | 140 | inactive
Crisp1 (GeneID 11571) | 1 | 96.5 | 82.9 | inactive
Crisp1 (GeneID 11571) | 2 | 86.6 | 108 | inactive
Crisp1 (GeneID 11571) | 3 | 92 | 122 | inactive
Marchf2 (GeneID 224703) | 1 | 57.3 | 52.6 | inactive
Marchf2 (GeneID 224703) | 2 | 84.8 | 85.8 | inactive
Marchf2 (GeneID 224703) | 3 | 120 | 85.3 | active
Pms1 (GeneID 227099) | 1 | 133 | 153 | active
Pms1 (GeneID 227099) | 2 | 83.3 | 83.3 | inactive
1700041G16Rik (GeneID 73299) | 1 | 72.6 | 62.8 | inactive
1700041G16Rik (GeneID 73299) | 2 | 22.8 | 21.1 | inactive
1700041G16Rik (GeneID 73299) | 3 | 60 | 80.9 | inactive
Avpr1a (GeneID 54140) | 1 | 70 | 84.8 | inactive
Avpr1a (GeneID 54140) | 2 | 95.4 | 88 | inactive
Avpr1a (GeneID 54140) | 3 | 74.6 | 77.3 | inactive
Cox7a1 (GeneID 12865) | 1 | 248 | 130 | active
Cox7a1 (GeneID 12865) | 2 | 86.3 | 87 | inactive
Cox7a1 (GeneID 12865) | 3 | 54.4 | 56.6 | inactive
Chrnb2 (GeneID 11444) | 1 | 57.1 | 79.6 | inactive
Chrnb2 (GeneID 11444) | 2 | 62.5 | 81.7 | inactive
Chrnb2 (GeneID 11444) | 3 | 100 | 110 | inactive
Cda (GeneID 72269) | 1 | 68.4 | 85.1 | inactive
Cda (GeneID 72269) | 2 | 105 | 85.2 | inactive
Cda (GeneID 72269) | 3 | 75.7 | 68.2 | inactive
Crebrf (GeneID 77128) | 1 | 42 | 36 | inactive
Crebrf (GeneID 77128) | 2 | 30.6 | 65.6 | inactive
Crebrf (GeneID 77128) | 3 | 62.4 | 69.9 | inactive
Mix23 (GeneID 381045) | 1 | 133 | 119 | active
Mix23 (GeneID 381045) | 2 | 136 | 134 | active
Mix23 (GeneID 381045) | 3 | 76.4 | 92.8 | inactive
Arhgap22 (GeneID 239027) | 1 | 85.2 | 73.8 | inactive
Arhgap22 (GeneID 239027) | 2 | 68.7 | 70.7 | inactive
Arhgap22 (GeneID 239027) | 3 | 90.1 | 125 | inactive
Slc17a1 (GeneID 20504) | 1 | 73.6 | 72.8 | inactive
Slc17a1 (GeneID 20504) | 2 | 85.4 | 69.5 | inactive
Slc17a1 (GeneID 20504) | 3 | 81.8 | 77.5 | inactive
Or6b2b (GeneID 258228) | 1 | 56.1 | 53.5 | inactive
Or6b2b (GeneID 258228) | 2 | 112 | 79.3 | inactive
Or6b2b (GeneID 258228) | 3 | 69.1 | 77.2 | inactive
Ppt1 (GeneID 19063) | 1 | 103 | 129 | inactive
Ppt1 (GeneID 19063) | 2 | 51.4 | 86 | inactive
Ppt1 (GeneID 19063) | 3 | 52.9 | 90 | inactive
Rnase9 (GeneID 328401) | 1 | 72.1 | 106 | inactive
Rnase9 (GeneID 328401) | 2 | 72.9 | 71.1 | inactive
Rnase9 (GeneID 328401) | 3 | 57.8 | 83.9 | inactive
Lamc3 (GeneID 23928) | 1 | 80.6 | 97.1 | inactive
Lamc3 (GeneID 23928) | 2 | 65.2 | 78.2 | inactive
Incenp (GeneID 16319) | 1 | 98.1 | 76.7 | inactive
Incenp (GeneID 16319) | 2 | 97.4 | 69.8 | inactive
Incenp (GeneID 16319) | 3 | 81.8 | 79.2 | inactive
Kmt5c (GeneID 232811) | 1 | 84.9 | 77.5 | inactive
Kmt5c (GeneID 232811) | 2 | 109 | 128 | inactive
Kmt5c (GeneID 232811) | 3 | 107 | 133 | inactive
Pde6d (GeneID 18582) | 1 | 81.4 | 70.2 | inactive
Pde6d (GeneID 18582) | 2 | 88.7 | 76.6 | inactive
Pde6d (GeneID 18582) | 3 | 90 | 79.3 | inactive
Osm (GeneID 18413) | 1 | 99.9 | 115 | inactive
Osm (GeneID 18413) | 2 | 57 | 56.9 | inactive
Osm (GeneID 18413) | 3 | 75.4 | 75.4 | inactive
Pcsk4 (GeneID 18551) | 1 | 41.4 | 49.9 | inactive
Pcsk4 (GeneID 18551) | 2 | 72.1 | 62.9 | inactive
Pcsk4 (GeneID 18551) | 3 | 111 | 109 | inactive
Or5h22 (GeneID 258392) | 1 | 63.9 | 46.1 | inactive
Or5h22 (GeneID 258392) | 2 | 96.2 | 81.6 | inactive
Or5h22 (GeneID 258392) | 3 | 65.3 | 92.4 | inactive
Pir (GeneID 69656) | 1 | 139 | 84.2 | active
Pir (GeneID 69656) | 2 | 158 | 68 | active
Pir (GeneID 69656) | 3 | 61.5 | 72 | inactive
Aadac (GeneID 67758) | 1 | 79.6 | 75.7 | inactive
Aadac (GeneID 67758) | 2 | 81.2 | 74.8 | inactive
Aadac (GeneID 67758) | 3 | 29.7 | 55.1 | inactive
Fmr1 (GeneID 14265) | 1 | 108 | 91.7 | inactive
Fmr1 (GeneID 14265) | 2 | 87.6 | 84.3 | inactive
Fmr1 (GeneID 14265) | 3 | 71.6 | 63.1 | inactive
Cebpa (GeneID 12606) | 1 | 63.1 | 53 | inactive
Cebpa (GeneID 12606) | 2 | 74.5 | 51.5 | inactive
Cebpa (GeneID 12606) | 3 | 106 | 111 | inactive

9 successive entries already listed:
target gene | reagent | GFP, % of control | viability (ATP), % of control | outcome
Klhl22 (GeneID 224023) | 1 | 79.5 | 60.7 | inactive
Klhl22 (GeneID 224023) | 2 | 114 | 85.7 | inactive
Klhl22 (GeneID 224023) | 3 | 94.2 | 89.1 | inactive
Bbs5 (GeneID 72569) | 1 | 90.4 | 70.6 | inactive
Bbs5 (GeneID 72569) | 2 | 54.7 | 70.4 | inactive
Bbs5 (GeneID 72569) | 3 | 35.8 | 50.3 | inactive
Ifna13 (GeneID 230396) | 1 | 49.9 | 74.2 | inactive
Ifna13 (GeneID 230396) | 2 | 82.2 | 56.8 | inactive
Ifna13 (GeneID 230396) | 3 | 56.2 | 60.9 | inactive
